Construct, isoform or probe ends are uncertain for at least one entry. Tags and fusion partners may be left off the protein sequences shown.
Target: T1, Gp44(1-55) C-terminal His (Gp44NT-His) (Bacillus phage SPO1) (UniProt Q08402)
T1 sequence (looked up): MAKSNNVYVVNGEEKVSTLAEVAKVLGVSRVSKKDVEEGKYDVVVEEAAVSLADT
Assay: NMR titration (1H-15N HSQC)
Conditions: pH 6.5, 298 K, no preference between the two probes; NMR titration at pH 6.5, 298 K; up to 5-fold dsDNA added to 15N Gp44; protein storage buffer 50 mM NaH2PO4 pH 6.8, 250 mM NaCl, 1 mM DTT; recombinant protein; residues 1-55; protein details: C-terminal His-tag

Sequence	binding result
AATTGCAGTAGGCATGACAAAATGGACTCA (double strand) [Pstrong (BBa_K780003)]	binds
AGGGAATACAAGCTACTTGTTCTTTTTGCA (double strand) [T7A1 (BBa_I712074)]	binds
